In US6335039B1, “Pharmaceutical formulations comprising vegetal material selected from trichilia” (Laboratorio Catarinense S/A, priority 1997, dated 2002):
For at least one compound, name, drawing or mass did not settle the structure.

System: corpus cavernosum of the rabbit (RbCC)
Assay type: cell-based

For `CC(=O)OCC[N+](C)(C)C` [ACh, acetylcholine], the “relaxation of RbCC during L-NAME infusion” value (L-NAME 10 μM, FIG. 2, 6 experiments) was “inhibited”, the “relaxation of RbCC on subsequent L-arginine infusion” value (L-arg 300 μM after L-NAME, FIG. 2) was “restored” and the “relaxation of RbCC in presence of atropine” value (atropine 1 μM, FIG. 3, 4 experiments) was “abolished”. For the same molecule, the “relaxation of RbCC in presence of ATP-dependent potassium channel blocker” value (blocker 10 μM (Glybenclamide, FIG. 4)) was “without affecting”.
